# Assay results: PubChem BioAssay AID1487 (National Center for Advancing Translational Sciences (NCATS), 2009)
# About 25 (0.01%) of roughly 200,000 compounds were called active. The shares of active, inactive and inconclusive entries below differ from those in the screen. Calls follow the shape of the dose curve; as a rule, active = well fitted inhibition curve with a large enough effect in the signal ratio, with a control signal flat (not every such curve was filed as active); inconclusive = small, poorly fitted or top-dose-only effect, or effect the other way, or a change in a side signal; inactive = flat fitted curve, though single readings scatter; the % refers to the signal ratio. Where the call is inconclusive, the potency comes from a doubtful curve fit.
# Assay: qHTS Assay for Modulators of Lamin A Splicing
# Conditions: HeLa LMNA splicing GFP/RFP minigene ratio, 48 h; ratio change, negative = inhibition: at 46.1 µM (top of the series) unless noted
# Summary of the method: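 S3 HeLa cells stably expressing lamin A-EGFP splicing minigene plus DsRed2, 600 cells/well, 48 h compound exposure at 37C. Laser-scanning cytometry; analysed as GFP (500-530 nm)/RFP (575-640 nm) total intensity ratio; 0.5% DMSO vehicle.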
# % is scaled to controls: 0 for no effect and ±100 for the full control effect; potency is read from the fitted curve at half-maximal effect.
SMILES,"ratio change, negative = inhibition",Potency
CC1CCc2c(sc3nnn(CC(=O)Nc4ccc(Cl)cc4)c(=O)c23)C1 (stereo not given),inconclusive: 6.43% [at 46 µM],
Cn1c(CSc2nc3ccc(Br)cc3[nH]2)nc2ccccc21,inactive: -6.25%,
COc1ccc(CNC(=O)c2ccc(CNS(=O)(=O)c3ccc(F)cc3)cc2)cc1,inactive: 24.4% [at 46 µM],
COc1ccccc1NC(=O)CSC1=Nc2ccccc2C2=NC(CC(=O)NCc3cccs3)C(=O)N12 (stereo not given),inconclusive: -16% [at 46 µM],
Oc1ccc(Nc2nnc(-c3ccc(O)cc3)c3ccccc23)cc1,inconclusive: -29.9% [at 46 µM],
CC(=O)N1CCc2cc(C(=O)CN3CCN(c4cccc(Cl)c4)CC3)ccc21,inactive: -0.137%,
Cc1ccccc1NC(=O)CSc1nnc(-c2cccs2)o1,inconclusive: -5.94% [at 46 µM],
OCCN1CCN(CCCN2c3ccccc3C=Cc3ccccc32)CC1,inconclusive: -33.5%,
C=CCn1c(SCc2nc3sc(C(=O)O)c(C)c3c(=O)[nH]2)nnc1-c1ccc(C(C)(C)C)cc1,inconclusive: 15.4% [at 46 µM],
Cc1oc2c(C)c(O)ccc2c(=O)c1-c1cnn(-c2ccccc2)c1,,"inconclusive: 35.5 µM [cytotoxic, single point]"
O=C(CCN1C(=O)C2C3CCC(C3)C2C1=O)Nc1ccc(Br)cc1 (stereo not given),inconclusive: 21.6%,
Cc1ccc(SCC(=O)Nc2ccc(-c3nnc(-c4ccco4)o3)cc2)cc1,inactive: 12.7%,
C/C(CC(=O)Nc1ccc(OCc2ccccc2)cc1)=N\NC(=O)C(=O)Nc1ccc(C)c(Cl)c1,inactive: 13.8%,
O=C(NC(=S)Nc1ccccc1N1CCCC1)c1ccc([N+](=O)[O-])cc1,,"inconclusive: 22.4 µM [falling, partial curve, poor fit]"
CN(C)S(=O)(=O)N(CC(=O)Nc1ccc(F)c(F)c1)c1ccccc1,inactive: -9.03%,
COc1ccccc1N1CCN(CCCNC(=O)c2cnn(-c3ccccc3Cl)c2C2CCN(C(=O)OC(C)(C)C)CC2)CC1,inconclusive: -1.44% [at 46 µM],
Cc1cc2n(n1)SC(Nc1cccc3ccccc13)N2 (stereo not given),inactive: -10.1%,
COc1ccc(C2C(=O)N(C3CCC(C)CC3)CC(=O)N2Cc2ccc(C)cc2)cc1OC (stereo not given),inactive: -2.3% [at 46 µM],
COc1ccc(OC)c(CNS(=O)(=O)c2c(C(=O)N3CCC(C)CC3)c(C)n(C)c2C)c1,inactive: -18.5% [at 46 µM],
CCn1c(/C=C\c2ccccc2C)nc2ccccc2c1=O,,"inconclusive: 11.2 µM [inhibitor, single point]"
CSc1nnc(-c2ccc(Cl)cc2Cl)o1,inactive: -7.66%,
Cc1cc(C)c2nc3nc(C)cc(C)c3c(N)c2c1,,"inconclusive: 22.4 µM [falling, single point]"

SMILES,"ratio change, negative = inhibition",Potency
COc1ccccc1CNc1nc(-c2ccccc2CN(C)C)nc2ccccc12,inconclusive: 11.1%,
O=C(c1ccccc1)c1ccc(N2CCOCC2)c(F)c1,inactive: 2.36%,
COC(=O)c1[nH]c2cc(OC)ccc2c1N,inactive: 2.62%,
N#CC1=C(N)SC(N)=C(C#N)C1C1CC=CCC1 (stereo not given),inactive: 12.6%,
O=C(NC(=S)Nc1ccccc1O)c1ccc(Cl)cc1Cl,inactive: -17.3% [at 46 µM],
COc1ccc2cc3cc(C(=O)NCc4cccs4)oc3nc2c1,inconclusive: 8.56%,
Cc1cc(Cl)ccc1OCCCC(=O)NO,inconclusive: -39.8%,
Nc1nc(-c2ccccc2)nn1S(=O)(=O)c1ccccc1,inconclusive: 3.11% [at 46 µM],
Cc1cccc(OCC(=O)Nc2cccc(O)c2)c1,inactive: 12.5%,
CCc1nnc(NC(=O)c2ccc(S(=O)(=O)N3CCc4ccccc4C3)cc2)s1,inactive: -10.3%,
Cc1nc2ccc(NC(=O)c3cc([N+](=O)[O-])cc([N+](=O)[O-])c3Cl)cc2s1,inconclusive: -31.5%,
COc1ccc(N2CCN(C(=O)C(C)(C)Oc3ccc(Cl)cc3)CC2)cc1,,"inconclusive: 35.5 µM [falling, single point]"
CC1=C(C(=O)OC2CCCCC2)C(c2cccnc2)n2nnnc2N1 (stereo not given),inconclusive: -43.8%,
CC1(c2cccc([N+](=O)[O-])c2)CC(C)(C)N(C(=O)c2ccccc2)c2ccccc21 (stereo not given),inconclusive: -31.1%,
Cc1cccc(C)c1N1CCN(S(=O)(=O)N2CCCCC2)CC1,inconclusive: -50.4% [at 46 µM],
CCn1c(SC)nc2c([nH]c3ccccc32)c1=O,inconclusive: -1.82% [at 46 µM],
CCOC(=O)c1c(S(=O)(=O)N2CCC(C(=O)Nc3ccc(C)cn3)CC2)c(C)n(C)c1C,inconclusive: 12.7% [at 46 µM],
Cc1c(Cc2ccccc2)c(=O)oc2cc(OC(=O)c3ccccc3)ccc12,inactive: -8.51%,
COc1ccc2cc(C#N)c(N3CCN(C(=O)c4ccccc4C)CC3)nc2c1,inconclusive: -27.7% [at 46 µM],
CC1CCCCN1C(=O)CSc1nc2ccccc2nc1Cc1ccccc1 (stereo not given),inconclusive: -23.4% [at 46 µM],
CCOC(=O)C1(CCc2ccccc2)CCN(Cc2c(O)cccc2OC)CC1,inconclusive: -32.8% [at 46 µM],
COc1ccc(-n2cc(C(=O)NCCc3ccc(C)cc3)c3ccccc3c2=O)cc1,inactive: -1.07% [at 46 µM],

# A portion taken from the entries so far:
SMILES,"ratio change, negative = inhibition",Potency
Nc1nc(-c2ccccc2)nn1S(=O)(=O)c1ccccc1,inconclusive: 3.11% [at 46 µM],
Cc1cccc(OCC(=O)Nc2cccc(O)c2)c1,inactive: 12.5%,
CCc1nnc(NC(=O)c2ccc(S(=O)(=O)N3CCc4ccccc4C3)cc2)s1,inactive: -10.3%,

# The results go on:

SMILES,"ratio change, negative = inhibition",Potency
CC(C)c1ccc(-c2c(C#N)c(N)nc(SCC(=O)N3CCCCC3)c2C#N)cc1,inactive: 4.29%,
CCOc1ccc(N2C(=O)c3[nH]nc(-c4ccccc4)c3C2c2ccc(O)c(OC)c2)cc1 (stereo not given),inconclusive: -35.7% [at 46 µM],
CCN(CC(=O)NC1CCS(=O)(=O)C1)C(=O)/C=C/c1cccs1 (stereo not given),inconclusive: -20.3% [at 46 µM],
Cc1ccc(N/C=C(\[N+](=O)[O-])S(=O)(=O)c2ccccc2)cc1,inconclusive: -8.99% [at 46 µM],
COc1ccc(NC(=O)CSc2ccc(F)cc2)cc1S(=O)(=O)N1CCCCC1,,"inconclusive: 14.1 µM [falling, single point]"
COc1cccc(CNC(=O)c2ccc3oc(=O)n(Cc4ccccc4)c3c2)c1,inactive: -2.1% [at 46 µM],
Cc1ccccc1OCC(=O)Nc1cccc(NC(=O)c2ccco2)c1,inactive: -14.4%,
O=C(O)C1CCCN1C(=O)Nc1ccc(Cl)cc1 (stereo not given),inactive: 0.997%,
CC(NC(=O)c1cccc(Nc2nc3ccccc3n3nnnc23)c1)c1ccccc1 (stereo not given),,"inconclusive: 10 µM [cytotoxic, partial curve]"
N#Cc1nc(-c2ccc(OCc3ccccc3)cc2)oc1NCc1cccnc1,inconclusive: -30.4%,
CCCNC(=O)CCCCn1c(=S)[nH]c2c([nH]c3ccc(OC)cc32)c1=O,inactive: 24.9% [at 46 µM],
COC(=O)NCC(c1cccnc1)N1CCN(c2ccccc2OC)CC1 (stereo not given),inactive: 8.9%,
CCc1[nH]c(=O)c(C#N)c2c1CCCC2,inactive: 7.16%,
CC(C)Cc1ccc(/C=C/C(=O)NC2CC2)cc1,inconclusive: -40.4%,
O=C(CSc1ccc2nnc(-c3ccc(F)cc3)n2n1)N1CCCc2ccccc21,inconclusive: -13.5%,
O=S(=O)(NC1CCCCC1)c1ccc(-c2csnn2)s1,inactive: -13.2%,
CCc1ccc(C(=O)COC(=O)C(CCSC)NC(=O)c2ccccc2)cc1 (stereo not given),inconclusive: -5.08%,
CCN(CC)S(=O)(=O)c1nnc(NC(=O)COc2ccccc2)s1,inconclusive: 11.8% [at 46 µM],
COc1ccc(Oc2ncc3nc(-c4ccc(OC)cc4)c(=O)n(C4CC4)c3n2)cc1,inconclusive: -10.8%,
COC(=O)C1CSC(C(=O)OC)N1C(=O)CN1CCN(c2ccc(OC)cc2)CC1 (stereo not given),inconclusive: 38.7% [at 9.22 µM],
COc1ccc(OC)c(C(=O)CN2C(=O)N(c3cc(C)cc(C)c3)S(=O)(=O)c3ccccc32)c1,inactive: -1.43% [at 46 µM],
Oc1c(C(c2ccc(F)cc2)N2CCCC2)sc2nc(-c3ccco3)nn12 (stereo not given),inconclusive: -23.8% [at 46 µM],

SMILES,"ratio change, negative = inhibition",Potency
O=c1c2ccccc2nc(/C=C/c2ccc([N+](=O)[O-])o2)n1CCCO,,"inconclusive: 2.82 µM [cytotoxic, full curve]"
Cc1ccc(S(=O)(=O)c2cn(C)c3cc(N4CCOCC4)c(F)cc3c2=O)c(C)c1,inconclusive: -4.77% [at 46 µM],
O=S(=O)(c1ccc2ccccc2c1)n1cnc2ccccc21,,"inconclusive: 35.5 µM [falling, single point]"
O=C(Oc1ccccc1C(=O)O)c1ccccc1O,inconclusive: 1.96%,
Cc1ccc2c(c1)-c1onc(C(=O)N3CCN(c4cc(C)ccc4C)CC3)c1CO2,inconclusive: 45.8% [at 46 µM],
Cc1ccc(C)c(OCCCC(=O)Nc2ccc(N3CCOCC3)cc2)c1,inactive: -12%,
Cn1cc(-c2ccccc2C(N)=O)c(=O)c2ccccc21,inactive: 22.2% [at 46 µM],
Cc1ccc2nc(NC(=O)c3ccc4ncsc4c3)sc2c1,inactive: -4.38%,
O=[N+]([O-])c1ccc(/C=N/n2c(C3CCCCC3)n[nH]c2=S)cc1,inactive: 4.71%,
O=C(CCS(=O)(=O)c1cccs1)Nc1ccc(C(=O)NC2CCN(Cc3ccccc3)CC2)cc1,inconclusive: -18.3% [at 46 µM],
CCCCC(=O)NC(=S)NNC(=O)CC,inactive: -5.81%,
O=C(Nc1cccc(-c2nnc(-c3ccco3)o2)c1)C(c1ccccc1)c1ccccc1,inconclusive: 8.38%,
CCOC(=O)C1CCCN(Cc2ccccc2Cl)C1 (stereo not given),inactive: 4.97%,
CC1CCCN(C2=C(Cl)C(=O)N(c3cccc(Cl)c3)C2=O)C1 (stereo not given),inactive: -4.37%,
O=c1[nH]ncc(N2CCCC2)c1Cl,inconclusive: 38.3% [at 46 µM],
CC(CNC(=O)c1sc2ncccc2c1-n1cccc1)c1ccccc1 (stereo not given),inactive: 10.6% [at 46 µM],
CC(C)(Oc1ccc(Cl)cc1)C(=O)Nc1cccc(-c2cn3cccnc3n2)c1,inconclusive: -18.5% [at 46 µM],
O=C(CCNS(=O)(=O)c1cccc2nonc12)NC1CCCCCC1,inactive: 17.5% [at 46 µM],
S=c1[nH]nc(-c2ccco2)n1/N=C/c1ccc(Cl)c(Cl)c1,inactive: -20%,
